Results taken from publication PMC10883267 (2023).
Read-outs that look alike come from different tables or passages of the source. Results are given in words; binding and its absence hold for the method and conditions named. In cells and extracts the contact can be indirect. For some of these results: A result given as binding can be weak or reduced; the word gives no strength.

Chains of the proteins cited; added tags and fusions are not shown. Residues count along the entry.
UniProt Q13541, residues 50-83: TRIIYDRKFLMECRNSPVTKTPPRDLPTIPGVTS

Legend:
Experiment in all cases: pull-down; His- and MBP-tagged eIF4E from E. coli lysate held on HisPur Ni-NTA magnetic beads (1 h, 4 °C), then soluble fraction of E. coli lysate with MBP-tagged 4EBM (1 h, 4 °C); 50 mM Tris-HCl pH 7.5, 100 mM NaCl, 1 mM DTT, 20 mM imidazole, 0.01% Tween-20; eluted with 500 mM imidazole; SDS-PAGE, Coomassie, quantified with Fiji
[1] = biological target: T1, mouse eIF4E1B (63-244) (mouse) (UniProt Q3UTA9)
T1 sequence: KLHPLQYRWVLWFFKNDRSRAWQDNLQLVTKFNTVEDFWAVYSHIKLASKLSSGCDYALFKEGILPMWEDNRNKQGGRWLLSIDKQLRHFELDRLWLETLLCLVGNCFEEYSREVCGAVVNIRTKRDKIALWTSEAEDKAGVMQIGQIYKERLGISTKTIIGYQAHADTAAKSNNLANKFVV

[2] = biological target: T2, human eIF4E1B (60-242) (human) (UniProt A6NMX2)
T2 sequence: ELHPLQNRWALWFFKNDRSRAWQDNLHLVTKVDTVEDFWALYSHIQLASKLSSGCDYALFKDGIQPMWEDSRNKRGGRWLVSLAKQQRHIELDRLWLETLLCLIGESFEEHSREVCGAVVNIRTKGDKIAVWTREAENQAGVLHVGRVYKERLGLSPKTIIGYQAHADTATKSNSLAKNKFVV

[3] = biological target: mouse eIF4E1B (63-244) with Trp101 mutated (dorsal surface mutant) (mouse) (UniProt Q3UTA9)
[4] = biological target: mouse eIF4E1B (63-244) with residues of the lateral surface mutated (mouse) (UniProt Q3UTA9)
[5] = biological target: mouse eIF4E1B (63-244) with Trp101 mutated (dorsal surface mutant) (mouse) (UniProt Q3UTA9); remark: listed apart in the source
[6] = biological target: mouse eIF4E1B (63-244) with residues of the lateral surface mutated (mouse) (UniProt Q3UTA9); remark: listed apart in the source
[7] = biological target: zebrafish eIF4E1c (49-230) (zebrafish)

**Q.** With “eIF4E-binding motif of human eIF4G (608-647) (domain or fragment)” as the molecule, how does the binding [1] read?
**A.** The binding was “no binding”.

**Q.** And the binding [2]?
**A.** Its binding is “no binding”.

**Q.** For “eIF4E-binding motif of human eIF4EBP1 (50-83) (from UniProt Q13541 50-83) (domain or fragment)”, which binding [3] is on record?
**A.** The binding was “no binding”.

**Q.** And the binding [4]?
**A.** The binding was “no binding”.

B1: eIF4E-binding motif of human eIF4ENIF1 (27-63) (domain or fragment, UniProt Q9NRA8 27-63)
chain: PHRYTKEELLDIKELPHSKQRPSCLSEKYDSDGVWDP
**Q.** For B1, which binding [5] is on record?
**A.** Its binding is “no binding”.

**Q.** What about the binding [6] of the same molecule?
**A.** The binding was “binds”.

**Q.** What about the binding [7] of the same molecule?
**A.** Its binding is “binds”.
